From publication PMC4154866
No constants are given. Whether binding was seen depends on the method and setting. Some results given as binding are weak or reduced against the parent protein; the word gives no strength. One block for each binder: values may come before it.

Biological target: T1, BIK1 (pGBKT7-BIK1) (A. thaliana) (UniProt O48814)
T1 sequence: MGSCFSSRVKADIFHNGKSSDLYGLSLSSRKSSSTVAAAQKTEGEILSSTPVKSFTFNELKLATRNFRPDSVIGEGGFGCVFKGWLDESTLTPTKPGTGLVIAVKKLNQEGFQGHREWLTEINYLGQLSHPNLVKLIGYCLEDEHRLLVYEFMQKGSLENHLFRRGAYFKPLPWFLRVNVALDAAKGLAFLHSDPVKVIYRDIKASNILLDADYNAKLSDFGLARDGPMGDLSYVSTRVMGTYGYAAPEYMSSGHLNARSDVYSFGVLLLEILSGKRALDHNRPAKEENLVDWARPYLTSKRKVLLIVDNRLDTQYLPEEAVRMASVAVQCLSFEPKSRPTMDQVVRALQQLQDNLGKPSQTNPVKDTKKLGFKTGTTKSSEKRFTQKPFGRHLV
Assay: two-hybrid; GAL4 system (Clontech), yeast AH109; BIK1 in pGBKT7, kinase domains in pGADT7; His reporter on medium with 3 mM 3-AT and lacZ reporter

binding: binds
B1: PEPR1 kinase domain (pGADT7-PEPR1KD) (domain or fragment, UniProt Q9SSL9 827-1123)
chain: LNEKYTIGRGAHGIVYRASLGSGKVYAVKRLVFASHIRANQSMMREIDTIGKVRHRNLIKLEGFWLRKDDGLMLYRYMPKGSLYDVLHGVSPKENVLDWSARYNVALGVAHGLAYLHYDCHPPIVHRDIKPENILMDSDLEPHIGDFGLARLLDDSTVSTATVTGTTGYIAPENAFKTVRGRESDVYSYGVVLLELVTRKRAVDKSFPESTDIVSWVRSALSSSNNNVEDMVTTIVDPILVDELLDSSLREQVMQVTELALSCTQQDPAMRPTMRDAVKLLEDVKHLARSCSSDSVR

binding: no binding
B2: RLK7 kinase domain (pGADT7-RLK7KD) (domain or fragment, UniProt F4I2N7 671-977)
chain: LIGRGGCGDVYRVVLGDGKEVAVKHIRCSSTQKNFSSAMPILTEREGRSKEFETEVQTLSSIRHLNVVKLYCSITSDDSSLLVYEYLPNGSLWDMLHSCKKSNLGWETRYDIALGAAKGLEYLHHGYERPVIHRDVKSSNILLDEFLKPRIADFGLAKILQASNGGPESTHVVAGTYGYIAPAEYGYASKVTEKCDVYSFGVVLMELVTGKKPIEAEFGESKDIVNWVSNNLKSKESVMEIVDKKIGEMYREDAVKMLRIAIICTARLPGLRPTMRSVVQMIEDAEPCRLMGIVISKESDVKVKEIS
